In paper PMC12134396:
Results are given in words; binding and its absence hold for the method and conditions named. In cells and extracts the contact can be indirect. Some entries that bind do so weakly or less than the wild type.

The chains behind the UniProt entries cited, without tags or fusion partners.
UniProt P42771: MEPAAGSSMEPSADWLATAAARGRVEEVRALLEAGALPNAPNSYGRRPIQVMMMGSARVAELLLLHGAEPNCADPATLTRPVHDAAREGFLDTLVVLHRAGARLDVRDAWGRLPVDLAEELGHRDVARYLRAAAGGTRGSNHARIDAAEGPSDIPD
UniProt P40763: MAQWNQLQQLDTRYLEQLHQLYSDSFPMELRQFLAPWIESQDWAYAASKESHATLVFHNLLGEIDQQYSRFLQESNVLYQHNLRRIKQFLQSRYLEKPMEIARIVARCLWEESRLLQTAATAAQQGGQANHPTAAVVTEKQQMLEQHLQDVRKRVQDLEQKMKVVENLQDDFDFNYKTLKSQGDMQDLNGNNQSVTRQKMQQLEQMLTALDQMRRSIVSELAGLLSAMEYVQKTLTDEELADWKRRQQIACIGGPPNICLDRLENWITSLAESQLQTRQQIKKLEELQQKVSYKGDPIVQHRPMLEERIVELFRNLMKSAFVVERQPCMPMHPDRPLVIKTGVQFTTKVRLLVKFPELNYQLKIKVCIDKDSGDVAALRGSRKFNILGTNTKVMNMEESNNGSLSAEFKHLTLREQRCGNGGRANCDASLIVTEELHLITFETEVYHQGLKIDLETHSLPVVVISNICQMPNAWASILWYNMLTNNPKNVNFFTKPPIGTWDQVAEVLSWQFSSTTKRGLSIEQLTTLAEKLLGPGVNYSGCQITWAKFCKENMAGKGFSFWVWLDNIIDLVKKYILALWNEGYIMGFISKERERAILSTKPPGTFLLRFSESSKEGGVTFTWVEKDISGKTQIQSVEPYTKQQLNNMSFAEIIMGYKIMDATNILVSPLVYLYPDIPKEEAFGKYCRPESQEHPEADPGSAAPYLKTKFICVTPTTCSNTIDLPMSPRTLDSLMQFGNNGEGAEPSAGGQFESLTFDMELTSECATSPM

How the values were obtained:
[1] = target: Flag-p16 (human), from overexpression adenovirus in HEK293T cells (human) (UniProt P42771); assay: co-IP; HEK293T cells with Flag-p16 adenovirus and Myc-STAT3 plasmid (full length or domain deletion mutants); anti-Myc or anti-Flag immunoprecipitation; Western blots for Myc and Flag
[2] = target: p16^INK4a, overexpressed from adenovirus in fibroblasts (p16-OE) (UniProt P42771); assay: co-IP; HCFB and MRC-5 cells with p16 overexpression adenovirus; anti-p16 or anti-STAT3 immunoprecipitation; Western blots for p16 and STAT3; cytoplasm and nuclei

Substance	binding [1]	binding [2]
Myc-STAT3, full-length human STAT3 (from UniProt P40763 1-770)	binds	
STAT3, endogenous in human fibroblasts (from UniProt P40763 1-770)		binds
